{
  "sequences": {"note": "The chains behind the UniProt entries cited, without tags or fusion partners. Where a name states a change or a piece, a line headed by the entry shows the natural chain unless it says otherwise.", "UniProt Q9P296": "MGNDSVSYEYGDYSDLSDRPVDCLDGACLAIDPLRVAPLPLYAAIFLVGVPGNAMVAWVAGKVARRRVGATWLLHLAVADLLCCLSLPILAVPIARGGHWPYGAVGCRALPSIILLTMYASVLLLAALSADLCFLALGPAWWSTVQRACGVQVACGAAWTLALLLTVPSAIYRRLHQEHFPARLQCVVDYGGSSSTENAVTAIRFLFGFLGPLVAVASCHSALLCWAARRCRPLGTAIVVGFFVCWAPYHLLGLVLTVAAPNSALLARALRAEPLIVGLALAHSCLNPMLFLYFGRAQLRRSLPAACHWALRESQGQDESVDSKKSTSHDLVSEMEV"},
  "source": "patent US20060121462A1",
  "about": "“Receptor and screening methods” (priority 2003, published 2006)",
  "key": {"C5L2": {"target": "T1, C5L2 (Homo sapiens, UniProt Q9P296)", "T1 construct": "expressed in transfected cells", "assay": "Triglyceride synthesis (3H oleate incorporation) in HEK293 cells stably transfected with C5L2", "format": "cell-based", "conditions": "HEK-C5L2 stable transfectants", "method": "FIG. 15: Functional Response of HEK293 Cells Stably Transfected with C5L2 to ASP and Insulin: Cells were tested for response to ASP and insulin stimulation of triglyceride synthesis with 100 μM ^3H oleate for 4 hours. Results are calculated as nmol ^3H oleate incorporated into triglyceride/mg cell protein where 0 ASP is set as 100%. […] As in many biologic assays, the concentration required for activity at 37° C. under dynamic conditions is greater than the binding affinity (which is assessed at 4° C. under static conditions). For example, insulin Kd is in the pM range, but nM concentrations are required for activity. ASP Kd is high nM range, but biologic activity is in low μM range."}, "3T3 cells": {"system": "3T3 cells", "assay": "ASP-stimulated triglyceride synthesis in 3T3 cells", "format": "cell-based, murine", "conditions": "3T3 cells which normally respond to ASP"}},
  "note": "For at least one compound, name, drawing or mass did not settle the structure.",
  "data": [
    {"smiles": "COC[C@H]1OC(=O)c2coc3c2[C@@]1(C)C1=C(C3=O)[C@@H]2CCC(=O)[C@@]2(C)C[C@H]1OC(C)=O", "note": "[wortmannin, reference compound]", "values": [
      {"measurement": "effect on ASP response (triglyceride synthesis)", "setting": "C5L2", "value": "blocks ASP response in HEK-C5L2 stable transfectants"},
      {"measurement": "effect on ASP effect (triglyceride synthesis)", "setting": "3T3 cells", "value": "blocks the ASP effect as it does in 3T3 cells"}
    ]}
  ]
}
